Taken from: PubChem BioAssay AID1159590 (NIAID, 2016)
The deposit covers 756 reagents; below is a part drawn at random. 128 of all reagents (17%) were called active. 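Calls are two-sided: both reduced and increased p65 nuclear entry count as active.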 The record does not give: the amount of reagent.

Screen: 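Finding genes that mouse macrophage TLR2 agonist signalling relies on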
System: mouse RAW264.7 macrophage reporter cells expressing GFP-p65 and a Tnf promoter-mCherry
Knock-down reagent: single siRNA against mouse genes
Timing: 48 to 72 hours after siRNA transfection, then 40 minutes of ligand
Challenge: Pam3CSK4 (TLR2/1 agonist) for 40 minutes before fixation; dose not given
Measured: 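p65 nuclear translocation measured by high-content imaging, shown for each siRNA as a robust z-score averaged across replicates, relative to negative controls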
Direction: p65 nuclear entry z-score: higher = more p65 moved into nuclei than in negative-control wells
Call rule: In these data the active calls have p65 nuclear entry z-score, replicate mean at about -1.5 or lower, or at about 1.5 or higher
Meaning of the calls: active = strong change, up or down; inactive = little change

| gene | PubChem SID | p65 nuclear entry z-score, replicate mean | activity call |
| --- | --- | --- | --- |
| Elf4 | SID303071800 | -0.87 | inactive |
| Elf4 | SID303071801 | 0.151 | inactive |
| Elf4 | SID303071802 | -0.866 | inactive |
| Elf4 | SID303071803 | -1.48 | inactive |
| Elf4 | SID303071804 | -0.271 | inactive |
| Elf4 | SID303071805 | -1.64 | active |
| Btk | SID303071614 | -0.182 | inactive |
| Btk | SID303071615 | -0.232 | inactive |
| Btk | SID303071616 | -1.02 | inactive |
| Btk | SID303071617 | -0.51 | inactive |
| Btk | SID303071618 | 3.77 | active |
| Btk | SID303071619 | 1.6 | active |
| Tnf | SID303071848 | -1.28 | inactive |
| Tnf | SID303071849 | -1.07 | inactive |
| Tnf | SID303071850 | -0.922 | inactive |
| Tnf | SID303071851 | -2.11 | active |
| Tnf | SID303071852 | -1.74 | active |
| Tnf | SID303071853 | -0.185 | inactive |
| Lbp | SID303071248 | -0.526 | inactive |
| Lbp | SID303071249 | -1.45 | inactive |
| Lbp | SID303071250 | 0.929 | inactive |
| Lbp | SID303071251 | -0.609 | inactive |
| Lbp | SID303071252 | 1.68 | active |
| Lbp | SID303071253 | -0.557 | inactive |
| Il1b | SID303071836 | 0.62 | inactive |
| Il1b | SID303071837 | 0.26 | inactive |
| Il1b | SID303071838 | 0.109 | inactive |
| Il1b | SID303071839 | 1.47 | inactive |
| Il1b | SID303071840 | -0.688 | inactive |
| Il1b | SID303071841 | -1.3 | inactive |
| Pik3cg | SID303071662 | -0.0129 | inactive |
| Pik3cg | SID303071663 | -0.884 | inactive |
| Pik3cg | SID303071664 | -0.263 | inactive |
| Pik3cg | SID303071665 | 0.49 | inactive |
| Pik3cg | SID303071666 | -0.305 | inactive |
| Pik3cg | SID303071667 | 3.13 | active |
| Ikbkb | SID303071380 | -0.188 | inactive |
| Ikbkb | SID303071381 | -1.23 | inactive |
| Ikbkb | SID303071382 | -2.03 | active |
| Ikbkb | SID303071383 | -1.26 | inactive |
| Ikbkb | SID303071384 | -0.981 | inactive |
| Ikbkb | SID303071385 | 0.0603 | inactive |
| Tlr9 | SID303071242 | -0.617 | inactive |
| Tlr9 | SID303071243 | -0.904 | inactive |
| Tlr9 | SID303071244 | 0.0545 | inactive |
| Tlr9 | SID303071245 | -0.67 | inactive |
| Tlr9 | SID303071246 | 0.268 | inactive |
| Tlr9 | SID303071247 | -1.33 | inactive |
